Data source: PubChem BioAssay AID1259308 (NCATS, 2017)
This is one part, drawn at random, of about 59,000 reagents tested. Of all reagents, about 1,510 (2.6%) got an active call. 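Calls use total luciferase alone and ignore viability, so some active siRNAs may act by altering cell number.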 Unmarked entries are inactive. The numbers tell different reagents against one gene apart.

Assay: 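Genes whose loss raises luciferase production in HEK293 cells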 (primary screen)
System: human HEK293 embryonic kidney cells stably expressing firefly luciferase (HEK-CMV-Luc2-Hygro)
Reagents: single siRNA against human genes, 0.8 pmol siRNA per well
Duration: 72 h
Measured: 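Reporter luminescence and viable-cell signal on separate replicate plates, given as percent of non-targeting control and median/MAD z-scores, plus per-cell luciferase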
Reading the numbers: total luciferase, z-score and total luciferase, % of control: higher = more reporter protein produced; luciferase per cell, z-score: higher = more reporter output per viable cell; viable cells, % of control: higher = more viable cells
Hit rule: 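Active when the median/MAD z-score for overall luciferase is greater than 3; a gene was taken forward for validation with new siRNAs if at least two of its three siRNAs passed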
Meaning of the calls: active = raised luciferase; inactive = no rise

gene | reagent | total luciferase, z-score | total luciferase, % of control | luciferase per cell, z-score | viable cells, % of control
KLK10 | 1 | -0.219 | 77.5 | -1.07 | 115
KLK10 | 2 | 0.223 | 86.3 | 0.386 | 87.1
KLK10 | 3 | 2.99 | 141 | 2.01 | 93.1
NHEJ1 | 1 | -0.263 | 76.6 | -0.639 | 101
NHEJ1 | 2 | 0.195 | 85.8 | 0.567 | 82.5
NHEJ1 | 3 | 0.748 | 96.8 | 0.149 | 104
USP47 | 1 | -1.91 | 43.9 | -2.56 | 96.4
USP47 | 2 | 0.0604 | 83.1 | -0.151 | 96.6
USP47 | 3 | 1.78 | 117 | 0.909 | 103
DCDC1 | 1 | 0.537 | 92.6 | 1.18 | 75.8
DCDC1 | 2 | -0.00344 | 81.8 | 0.0746 | 89.6
DCDC1 | 3 | 0.424 | 90.3 | 0.503 | 88.4
DCDC1 | 4 | -0.658 | 68.8 | 0.642 | 64.9
DCDC1 | 5 | 2.43 | 130 | 1.15 | 107
DCDC1 | 6 | 0.495 | 91.7 | 0.239 | 96.3
OIP5 | 1 | -1.38 | 54.5 | -1.86 | 99.4
OIP5 | 2 | 0.354 | 88.9 | -0.149 | 103
OIP5 | 3 | -0.956 | 62.9 | -0.956 | 90.4
PLXNA1 | 1 | 0.809 | 98 | 1.58 | 72.2
PLXNA1 | 2 | 2.3 | 128 | 0.846 | 114
PLXNA1 | 3 | -1.93 | 43.6 | -2.51 | 94.4
GSPT1 | 1 | 0.0869 | 83.6 | 0.298 | 86.4
GSPT1 | 2 | -0.728 | 67.4 | -0.321 | 82
GSPT1 | 3 | -1.98 | 42.4 | -1.86 | 77.5
KATNBL1 | 1 | 0.755 | 96.9 | 0.898 | 85.5
KATNBL1 | 2 | -1.58 | 50.5 | 0.539 | 49
KATNBL1 | 3 | -0.154 | 78.8 | -0.322 | 95.9
DLGAP5 | 1 | 0.425 | 90.3 | 0.618 | 85.8
DLGAP5 | 2 | 0.16 | 85.1 | 0.0158 | 94.7
DLGAP5 | 3 | -0.601 | 69.9 | -1.01 | 102
PPP1R13B | 1 | -1.21 | 57.8 | -1.65 | 99.8
PPP1R13B | 2 | 0.00169 | 81.9 | -0.359 | 101
PPP1R13B | 3 | -0.215 | 77.6 | -0.681 | 104
SLC27A1 | 1 | 1.17 | 105 | 1.03 | 89.7
SLC27A1 | 2 | 1.19 | 106 | 0.488 | 104
SLC27A1 | 3 | 0.533 | 92.5 | 0.203 | 98
AFAP1 | 1 | 0.1 | 83.9 | -0.76 | 115
AFAP1 | 2 | -0.247 | 77 | -0.703 | 103
AFAP1 | 3 | -0.804 | 65.9 | -1.32 | 104
MROH5 | 1 | -0.36 | 74.7 | 0.0156 | 83.2
MROH5 | 2 | -0.366 | 74.6 | -0.834 | 104
MROH5 | 3 | 0.368 | 89.2 | 0.632 | 84.4
SNORC | 1 | -0.345 | 75 | -0.227 | 89
SNORC | 2 | 0.342 | 88.7 | -0.244 | 106
SNORC | 3 | 2.66 | 135 | 3.2 | 64.8
PRSS46P | 1 | 0.29 | 87.7 | -0.101 | 101
PRSS46P | 2 | -1.21 | 57.8 | -1.01 | 84.3
PRSS46P | 3 | 1.75 | 117 | 1.55 | 86.8
ZNF37BP | 1 | -1.4 | 54 | -1.14 | 81.5
ZNF37BP | 2 | 0.0901 | 83.7 | -0.293 | 101
ZNF37BP | 3 | 0.396 | 89.8 | 0.303 | 92.6
TINF2 | 1 | -1.01 | 61.8 | -0.229 | 73.3
TINF2 | 2 | -0.545 | 71 | -1.19 | 109
TINF2 | 3 | 0.127 | 84.4 | -0.312 | 102
KLK15 | 1 | 0.39 | 89.6 | 0.0847 | 98
KLK15 | 2 | -1.21 | 57.8 | -1.76 | 103
KLK15 | 3 | -1.34 | 55.2 | -1.73 | 97.4

9 entries from above, reformatted.
NHEJ1 #2
- total luciferase, z-score: 0.195
- total luciferase, % of control: 85.8
- luciferase per cell, z-score: 0.567
- viable cells, % of control: 82.5

NHEJ1 #3
- total luciferase, z-score: 0.748
- total luciferase, % of control: 96.8
- luciferase per cell, z-score: 0.149
- viable cells, % of control: 104

USP47 #1
- total luciferase, z-score: -1.91
- total luciferase, % of control: 43.9
- luciferase per cell, z-score: -2.56
- viable cells, % of control: 96.4

USP47 #2
- total luciferase, z-score: 0.0604
- total luciferase, % of control: 83.1
- luciferase per cell, z-score: -0.151
- viable cells, % of control: 96.6

USP47 #3
- total luciferase, z-score: 1.78
- total luciferase, % of control: 117
- luciferase per cell, z-score: 0.909
- viable cells, % of control: 103

DCDC1 #1
- total luciferase, z-score: 0.537
- total luciferase, % of control: 92.6
- luciferase per cell, z-score: 1.18
- viable cells, % of control: 75.8

DCDC1 #2
- total luciferase, z-score: -0.00344
- total luciferase, % of control: 81.8
- luciferase per cell, z-score: 0.0746
- viable cells, % of control: 89.6

DCDC1 #3
- total luciferase, z-score: 0.424
- total luciferase, % of control: 90.3
- luciferase per cell, z-score: 0.503
- viable cells, % of control: 88.4

DCDC1 #4
- total luciferase, z-score: -0.658
- total luciferase, % of control: 68.8
- luciferase per cell, z-score: 0.642
- viable cells, % of control: 64.9
